± gives the standard deviation of the averaged measurements. This is a selection; strong and weak results do not stand in their true shares.
How the values were obtained:
Assay in all cases: NP40-soluble protein abundance relative to vehicle (solubility fold change) (ratio); higher = more soluble protein in presence of AMP-PNP
[1] = target: T1, H0YBI6 and related entries (UniProt Q86VQ6)
T1 sequence (whole entry): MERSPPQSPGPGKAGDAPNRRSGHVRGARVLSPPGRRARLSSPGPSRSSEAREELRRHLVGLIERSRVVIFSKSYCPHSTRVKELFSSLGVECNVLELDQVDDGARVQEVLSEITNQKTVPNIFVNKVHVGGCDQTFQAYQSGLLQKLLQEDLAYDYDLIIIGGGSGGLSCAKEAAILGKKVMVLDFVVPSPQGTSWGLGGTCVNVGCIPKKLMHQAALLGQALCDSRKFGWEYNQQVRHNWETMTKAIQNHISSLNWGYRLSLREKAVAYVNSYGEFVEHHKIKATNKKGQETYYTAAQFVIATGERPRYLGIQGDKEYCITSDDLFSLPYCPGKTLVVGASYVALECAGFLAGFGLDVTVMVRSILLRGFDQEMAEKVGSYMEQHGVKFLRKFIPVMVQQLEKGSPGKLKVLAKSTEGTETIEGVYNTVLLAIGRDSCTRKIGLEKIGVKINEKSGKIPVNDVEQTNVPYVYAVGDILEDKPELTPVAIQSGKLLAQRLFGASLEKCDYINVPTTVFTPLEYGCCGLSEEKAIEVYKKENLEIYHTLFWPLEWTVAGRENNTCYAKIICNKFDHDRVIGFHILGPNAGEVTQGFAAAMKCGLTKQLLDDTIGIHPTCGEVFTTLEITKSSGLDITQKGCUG
How it was run: (§1)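 Data come from three independent experiments in which Dounce-homogenised Jurkat crude lysate was treated at eight concentrations from 0.1 to 10 mM. Treatment ran 10 min at room temperature and then 3 min at 37 °C, after which 0.8% NP40 and benzonase were added for 60 min at 4 °C before ultracentrifugation. The supernatant underwent TMT labelling and LC-MS/MS, and vsn-normalised intensities were expressed as fold change against the detergent-processed vehicle in each replicate.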

[2] = target: T2, H0YMI4 and related entries (UniProt Q9Y6I4)
T2 sequence (whole entry): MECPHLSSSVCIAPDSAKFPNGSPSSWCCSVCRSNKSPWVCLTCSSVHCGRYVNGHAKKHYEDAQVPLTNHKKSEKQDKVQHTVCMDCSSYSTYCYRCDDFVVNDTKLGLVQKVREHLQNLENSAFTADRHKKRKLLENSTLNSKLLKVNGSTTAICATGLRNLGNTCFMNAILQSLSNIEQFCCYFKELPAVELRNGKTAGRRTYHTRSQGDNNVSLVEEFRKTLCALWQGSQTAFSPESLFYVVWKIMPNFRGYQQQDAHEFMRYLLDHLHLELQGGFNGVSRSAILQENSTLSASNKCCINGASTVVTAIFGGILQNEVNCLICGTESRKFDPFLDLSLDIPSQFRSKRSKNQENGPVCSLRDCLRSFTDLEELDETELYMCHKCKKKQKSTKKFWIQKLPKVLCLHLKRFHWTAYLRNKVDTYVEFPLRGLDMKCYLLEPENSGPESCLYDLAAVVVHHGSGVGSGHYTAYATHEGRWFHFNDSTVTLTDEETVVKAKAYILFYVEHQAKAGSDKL
How it was run: as §1

[3] = target: T3, H3BNT4 and related entries (UniProt Q99547)
T3 sequence (whole entry): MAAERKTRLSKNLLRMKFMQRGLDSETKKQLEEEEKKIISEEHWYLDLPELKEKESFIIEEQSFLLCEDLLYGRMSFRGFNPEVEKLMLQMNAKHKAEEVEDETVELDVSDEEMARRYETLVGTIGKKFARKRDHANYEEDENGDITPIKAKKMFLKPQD
How it was run: as §1

[4] = target: T4, H7C3D5 and related entries (UniProt Q8NC44)
T4 sequence (whole entry): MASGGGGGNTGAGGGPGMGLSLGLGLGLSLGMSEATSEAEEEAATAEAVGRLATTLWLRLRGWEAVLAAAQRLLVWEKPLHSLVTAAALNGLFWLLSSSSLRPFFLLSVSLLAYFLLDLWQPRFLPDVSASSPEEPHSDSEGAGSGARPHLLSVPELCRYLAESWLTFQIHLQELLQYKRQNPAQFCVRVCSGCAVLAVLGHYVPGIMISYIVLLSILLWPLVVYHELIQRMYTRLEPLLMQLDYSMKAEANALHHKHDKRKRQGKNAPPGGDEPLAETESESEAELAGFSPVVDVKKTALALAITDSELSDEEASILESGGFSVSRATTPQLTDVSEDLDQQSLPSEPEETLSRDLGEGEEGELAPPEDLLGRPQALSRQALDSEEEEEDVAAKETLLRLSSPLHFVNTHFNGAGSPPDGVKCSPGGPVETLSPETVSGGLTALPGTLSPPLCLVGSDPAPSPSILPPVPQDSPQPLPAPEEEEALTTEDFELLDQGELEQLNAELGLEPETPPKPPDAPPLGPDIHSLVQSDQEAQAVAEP
How it was run: as §1

[5] = target: T5, I3L1Q3 and related entries (UniProt Q8TE02)
T5 sequence (whole entry): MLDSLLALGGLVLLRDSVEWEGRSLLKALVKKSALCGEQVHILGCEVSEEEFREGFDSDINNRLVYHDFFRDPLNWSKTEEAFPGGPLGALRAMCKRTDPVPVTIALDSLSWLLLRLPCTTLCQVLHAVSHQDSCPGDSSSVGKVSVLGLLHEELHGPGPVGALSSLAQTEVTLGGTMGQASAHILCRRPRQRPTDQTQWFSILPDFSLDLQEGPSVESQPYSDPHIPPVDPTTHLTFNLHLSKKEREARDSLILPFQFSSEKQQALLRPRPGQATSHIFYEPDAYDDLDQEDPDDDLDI
How it was run: as §1

`Nc1ncnc2c1ncn2[C@@H]1O[C@H](COP(=O)(O)OP(=O)(O)NP(=O)(O)O)[C@@H](O)[C@H]1O` [adenylyl imidodiphosphate] gave an NP40-soluble protein abundance ([1]; concentration: 2mM) of 0.993 ± 0.052, an NP40-soluble protein abundance ([1]; concentration: 4mM) of 0.97 ± 0.044 and an NP40-soluble protein abundance ([1]; concentration: 6mM) of 0.961 ± 0.024. The NP40-soluble protein abundance ([1]; concentration: 8mM) was 0.981 ± 0.041, the NP40-soluble protein abundance ([1]; concentration: 10mM) was 0.954 ± 0.055 and the NP40-soluble protein abundance ([2]; concentration: 1mM) was 1.025 ± 0.0081. The NP40-soluble protein abundance ([2]; concentration: 2mM) was 0.986 ± 0.1, the NP40-soluble protein abundance ([2]; concentration: 4mM) was 1.03 ± 0.02 and the NP40-soluble protein abundance ([2]; concentration: 6mM) was 1.01 ± 0.019. It also gave an NP40-soluble protein abundance ([2]; concentration: 8mM) of 1.03 ± 0.021, an NP40-soluble protein abundance ([2]; concentration: 10mM) of 1.01 ± 0.016 and an NP40-soluble protein abundance ([3]; concentration: 1mM) of 1.01 ± 0.024. For the same compound, the NP40-soluble protein abundance ([3]; concentration: 2mM) was 1.09 ± 0.065, the NP40-soluble protein abundance ([3]; concentration: 4mM) was 1.03 ± 0.039 and the NP40-soluble protein abundance ([3]; concentration: 6mM) was 1.04 ± 0.048. The NP40-soluble protein abundance ([3]; concentration: 8mM) was 0.998 ± 0.06, the NP40-soluble protein abundance ([3]; concentration: 10mM) was 1.02 ± 0.033 and the NP40-soluble protein abundance ([4]; concentration: 1mM) was 1.01 ± 0.037. The NP40-soluble protein abundance ([4]; concentration: 2mM) was 0.99 ± 0.051, the NP40-soluble protein abundance ([4]; concentration: 4mM) was 1.03 ± 0.03 and the NP40-soluble protein abundance ([4]; concentration: 6mM) was 0.985 ± 0.01. It also gave an NP40-soluble protein abundance ([4]; concentration: 8mM) of 0.989 ± 0.029, an NP40-soluble protein abundance ([4]; concentration: 10mM) of 0.989 ± 0.051 and an NP40-soluble protein abundance ([5]; concentration: 1mM) of 0.981 ± 0.052. For the same compound, the NP40-soluble protein abundance ([5]; concentration: 2mM) was 0.968 ± 0.032 and the NP40-soluble protein abundance ([5]; concentration: 4mM) was 0.966 ± 0.062.
